Taste data for 1 molecule are collected here from patent US4293560A, “Talampicillin 2-methoxyphenoxyacetate and pharmaceutical compositions containing it” (priority 1980, dated 1981).

A short description of the data set: Taste. Particulars: talampicillin 2-methoxyphenoxyacetate.

Structures are written as SMILES. “Also recorded” adds a separate entry of the source.

Take `CC1(C)S[C@@H]2[C@H](NC(=O)[C@H](N)c3ccccc3)C(=O)N2[C@H]1C(=O)OC1OC(=O)c2ccccc21` (single isomer, unassigned) [talampicillin 2-methoxyphenoxyacetate, 2-methoxyphenoxyacetate of the phthalidyl ester of the 6-[D(-)-α-aminophenylacetamido]penicillanic acid]: the taste entry is recorded as “lacking the bitter taste; also recorded: good taste”.
